Our source for the binding values is PMC7099082.

These are yes or no findings as the source states them, for the method shown. A result given as binding can be weak or reduced; the word gives no strength. Sequences can lack the tags named with a protein.

Experiment [1] deals with T1, SnRK1α2/AKIN11 (Snf1-Related Kinase1 α2 catalytic subunit), B42 activation domain fusion (Arabidopsis thaliana) (UniProt P92958).
T1 sequence: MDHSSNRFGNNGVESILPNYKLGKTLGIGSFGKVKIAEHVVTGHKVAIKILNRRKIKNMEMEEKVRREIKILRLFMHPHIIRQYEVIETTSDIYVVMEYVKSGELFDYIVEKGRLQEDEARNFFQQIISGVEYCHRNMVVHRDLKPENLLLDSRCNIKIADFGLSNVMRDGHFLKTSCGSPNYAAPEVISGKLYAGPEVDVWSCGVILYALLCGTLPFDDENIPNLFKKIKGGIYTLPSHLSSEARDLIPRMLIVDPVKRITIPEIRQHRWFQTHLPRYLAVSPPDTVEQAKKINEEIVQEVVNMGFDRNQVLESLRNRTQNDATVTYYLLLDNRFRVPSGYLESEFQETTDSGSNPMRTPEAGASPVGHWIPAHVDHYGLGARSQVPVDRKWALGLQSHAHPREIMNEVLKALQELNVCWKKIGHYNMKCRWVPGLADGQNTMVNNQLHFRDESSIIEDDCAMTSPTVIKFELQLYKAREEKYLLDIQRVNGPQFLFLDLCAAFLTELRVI
Nature of the experiment: two-hybrid; LexA system by mating; SnRK1 subunits fused to the B42 activation domain (EGY48), library clones fused to the LexA DNA binding domain (RFY206); LEU and LacZ reporters, two plates per reporter; primary screen and independent retest of high confidence interactions.

For experiment [2], the target named is T2, SnRK1α1/AKIN10 (Snf1-Related Kinase1 α1 catalytic subunit), B42 activation domain fusion (Arabidopsis thaliana) (UniProt Q38997).
T2 sequence: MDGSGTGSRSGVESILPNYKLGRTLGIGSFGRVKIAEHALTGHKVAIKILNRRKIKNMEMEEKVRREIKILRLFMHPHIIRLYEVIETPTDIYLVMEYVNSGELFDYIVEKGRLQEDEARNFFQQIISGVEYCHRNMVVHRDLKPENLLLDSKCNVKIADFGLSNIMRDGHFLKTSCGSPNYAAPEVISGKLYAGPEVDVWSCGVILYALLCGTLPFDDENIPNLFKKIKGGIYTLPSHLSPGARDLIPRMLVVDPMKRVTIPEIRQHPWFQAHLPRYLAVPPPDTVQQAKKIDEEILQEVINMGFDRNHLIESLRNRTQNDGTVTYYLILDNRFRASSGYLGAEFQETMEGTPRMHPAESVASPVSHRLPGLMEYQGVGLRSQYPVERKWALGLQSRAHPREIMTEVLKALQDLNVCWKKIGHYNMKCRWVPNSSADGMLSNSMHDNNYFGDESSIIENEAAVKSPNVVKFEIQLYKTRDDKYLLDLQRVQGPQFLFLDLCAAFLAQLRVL
The description is as above.

“AIB1, LexA DNA binding domain fusion (Arabidopsis thaliana)”: the binding entry in experiment [1] and in experiment [2] was “binds” in each case.
For “DIG1/AITR2, LexA DNA binding domain fusion (Arabidopsis thaliana)”, the binding result in experiment [1] and in experiment [2] was “binds” in each case.
As for “DUF828/FORKED-LIKE7 (FL7), LexA DNA binding domain fusion (Arabidopsis thaliana)”, the binding entry in experiment [1] and in experiment [2] was “binds” throughout.
Turning to “HB6, LexA DNA binding domain fusion (Arabidopsis thaliana)”, the binding entry in experiment [1] and in experiment [2] was “binds” in each case.
